Measurements: PMC9068788
No constants are given. Whether binding was seen depends on the method and setting. In cells and extracts the contact can be indirect. Some entries that bind do so weakly or less than the wild type.

By UniProt entry, the sequences of proteins in these tests, tags left out.
UniProt O43151: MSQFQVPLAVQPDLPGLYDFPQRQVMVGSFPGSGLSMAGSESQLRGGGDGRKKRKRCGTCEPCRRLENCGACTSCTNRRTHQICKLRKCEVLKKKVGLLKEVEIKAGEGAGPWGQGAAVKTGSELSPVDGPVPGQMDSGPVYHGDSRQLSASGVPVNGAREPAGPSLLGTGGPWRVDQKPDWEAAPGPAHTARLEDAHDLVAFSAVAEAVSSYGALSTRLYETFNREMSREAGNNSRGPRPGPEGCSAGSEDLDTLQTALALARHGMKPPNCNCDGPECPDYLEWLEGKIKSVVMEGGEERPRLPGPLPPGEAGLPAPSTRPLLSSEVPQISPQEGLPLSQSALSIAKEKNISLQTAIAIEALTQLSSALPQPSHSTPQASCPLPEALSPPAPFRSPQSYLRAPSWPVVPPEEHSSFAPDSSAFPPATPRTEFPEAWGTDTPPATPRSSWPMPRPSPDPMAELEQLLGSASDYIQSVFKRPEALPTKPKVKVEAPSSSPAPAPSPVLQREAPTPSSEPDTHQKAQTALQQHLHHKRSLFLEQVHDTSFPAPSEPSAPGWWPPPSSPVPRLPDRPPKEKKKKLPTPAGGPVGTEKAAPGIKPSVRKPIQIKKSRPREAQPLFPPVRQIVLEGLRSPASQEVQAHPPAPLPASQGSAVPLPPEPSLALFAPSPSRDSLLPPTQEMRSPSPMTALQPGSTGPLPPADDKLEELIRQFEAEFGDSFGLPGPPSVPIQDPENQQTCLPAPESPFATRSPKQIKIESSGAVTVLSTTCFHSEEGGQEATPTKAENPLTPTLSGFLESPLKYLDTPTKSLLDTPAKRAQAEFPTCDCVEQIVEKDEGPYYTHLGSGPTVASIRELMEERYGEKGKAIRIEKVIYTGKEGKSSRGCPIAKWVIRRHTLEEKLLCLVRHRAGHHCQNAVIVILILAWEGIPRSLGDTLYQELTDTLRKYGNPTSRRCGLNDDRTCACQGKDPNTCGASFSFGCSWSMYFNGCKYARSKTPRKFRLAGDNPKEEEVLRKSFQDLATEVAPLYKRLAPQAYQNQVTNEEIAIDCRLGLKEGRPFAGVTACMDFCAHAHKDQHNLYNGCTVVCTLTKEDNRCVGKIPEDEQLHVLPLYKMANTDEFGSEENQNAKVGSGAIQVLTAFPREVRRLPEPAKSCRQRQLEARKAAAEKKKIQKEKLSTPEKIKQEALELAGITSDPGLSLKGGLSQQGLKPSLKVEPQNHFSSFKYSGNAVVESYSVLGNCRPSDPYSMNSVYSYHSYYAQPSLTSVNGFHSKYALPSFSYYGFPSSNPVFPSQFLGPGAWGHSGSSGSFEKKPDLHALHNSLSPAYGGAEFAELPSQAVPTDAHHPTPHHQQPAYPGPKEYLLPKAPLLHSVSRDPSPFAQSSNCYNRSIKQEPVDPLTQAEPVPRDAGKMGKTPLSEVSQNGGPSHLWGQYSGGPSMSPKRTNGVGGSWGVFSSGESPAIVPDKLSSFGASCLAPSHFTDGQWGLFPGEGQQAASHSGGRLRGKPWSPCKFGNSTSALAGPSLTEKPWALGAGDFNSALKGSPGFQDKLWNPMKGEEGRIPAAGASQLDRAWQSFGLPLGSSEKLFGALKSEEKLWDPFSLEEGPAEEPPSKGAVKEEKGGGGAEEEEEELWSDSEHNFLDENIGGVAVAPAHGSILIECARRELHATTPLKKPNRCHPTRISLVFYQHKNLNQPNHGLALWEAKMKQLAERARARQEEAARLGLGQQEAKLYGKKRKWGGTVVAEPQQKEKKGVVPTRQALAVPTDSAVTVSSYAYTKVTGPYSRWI
UniProt Q8NFU7: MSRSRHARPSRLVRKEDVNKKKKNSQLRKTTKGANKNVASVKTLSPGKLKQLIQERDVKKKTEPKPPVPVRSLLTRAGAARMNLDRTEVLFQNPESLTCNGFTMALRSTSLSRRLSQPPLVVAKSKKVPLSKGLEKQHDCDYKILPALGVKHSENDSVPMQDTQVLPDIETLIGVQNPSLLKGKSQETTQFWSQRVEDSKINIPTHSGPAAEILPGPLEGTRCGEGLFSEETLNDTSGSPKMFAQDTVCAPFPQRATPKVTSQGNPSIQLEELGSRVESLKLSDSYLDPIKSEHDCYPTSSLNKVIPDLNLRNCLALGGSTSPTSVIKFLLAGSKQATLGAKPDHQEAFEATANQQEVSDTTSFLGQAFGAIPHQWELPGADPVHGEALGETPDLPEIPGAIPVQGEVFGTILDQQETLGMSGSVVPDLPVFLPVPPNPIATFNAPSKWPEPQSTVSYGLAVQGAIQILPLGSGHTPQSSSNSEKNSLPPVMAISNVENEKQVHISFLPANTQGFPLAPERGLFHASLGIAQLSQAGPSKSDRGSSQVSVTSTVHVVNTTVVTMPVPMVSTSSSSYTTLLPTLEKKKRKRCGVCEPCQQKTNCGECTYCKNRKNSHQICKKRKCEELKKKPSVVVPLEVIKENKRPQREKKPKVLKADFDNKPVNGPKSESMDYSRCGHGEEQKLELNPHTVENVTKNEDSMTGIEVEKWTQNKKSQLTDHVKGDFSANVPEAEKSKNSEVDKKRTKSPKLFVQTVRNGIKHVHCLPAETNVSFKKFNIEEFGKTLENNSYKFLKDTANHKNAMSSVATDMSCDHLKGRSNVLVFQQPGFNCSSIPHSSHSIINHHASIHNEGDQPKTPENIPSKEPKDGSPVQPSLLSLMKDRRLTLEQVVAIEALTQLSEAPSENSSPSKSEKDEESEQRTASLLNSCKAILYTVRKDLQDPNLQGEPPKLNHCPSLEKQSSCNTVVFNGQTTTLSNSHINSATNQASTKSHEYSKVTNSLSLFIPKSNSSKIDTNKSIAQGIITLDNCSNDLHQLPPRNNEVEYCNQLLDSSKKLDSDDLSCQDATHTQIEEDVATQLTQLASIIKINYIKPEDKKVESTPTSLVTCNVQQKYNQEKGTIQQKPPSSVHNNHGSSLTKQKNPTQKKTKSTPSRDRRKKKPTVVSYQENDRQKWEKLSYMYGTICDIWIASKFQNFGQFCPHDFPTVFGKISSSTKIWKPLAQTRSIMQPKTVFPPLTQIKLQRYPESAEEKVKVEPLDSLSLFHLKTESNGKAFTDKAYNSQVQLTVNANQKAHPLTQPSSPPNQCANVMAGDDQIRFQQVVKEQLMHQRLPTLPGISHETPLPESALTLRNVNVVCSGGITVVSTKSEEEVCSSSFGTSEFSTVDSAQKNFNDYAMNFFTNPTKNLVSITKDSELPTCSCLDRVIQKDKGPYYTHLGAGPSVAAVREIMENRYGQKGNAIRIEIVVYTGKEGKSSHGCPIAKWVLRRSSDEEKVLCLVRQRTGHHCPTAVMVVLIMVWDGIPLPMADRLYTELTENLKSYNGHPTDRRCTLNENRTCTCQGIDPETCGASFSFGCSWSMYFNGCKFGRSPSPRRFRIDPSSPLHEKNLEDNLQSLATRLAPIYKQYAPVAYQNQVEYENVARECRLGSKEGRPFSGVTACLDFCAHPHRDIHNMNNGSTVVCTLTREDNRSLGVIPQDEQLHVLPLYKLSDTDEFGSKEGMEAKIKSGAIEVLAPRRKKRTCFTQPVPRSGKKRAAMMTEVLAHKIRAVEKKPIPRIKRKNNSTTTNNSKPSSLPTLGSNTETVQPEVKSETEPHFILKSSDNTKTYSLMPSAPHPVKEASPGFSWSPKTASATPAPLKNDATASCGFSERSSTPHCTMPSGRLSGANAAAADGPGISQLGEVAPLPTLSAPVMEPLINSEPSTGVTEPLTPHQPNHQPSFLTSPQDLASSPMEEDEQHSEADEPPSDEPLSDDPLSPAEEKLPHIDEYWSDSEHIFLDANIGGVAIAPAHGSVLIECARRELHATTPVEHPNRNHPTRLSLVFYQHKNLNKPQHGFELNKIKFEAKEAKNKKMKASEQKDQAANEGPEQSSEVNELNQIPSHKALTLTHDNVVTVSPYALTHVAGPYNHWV
UniProt Q92908: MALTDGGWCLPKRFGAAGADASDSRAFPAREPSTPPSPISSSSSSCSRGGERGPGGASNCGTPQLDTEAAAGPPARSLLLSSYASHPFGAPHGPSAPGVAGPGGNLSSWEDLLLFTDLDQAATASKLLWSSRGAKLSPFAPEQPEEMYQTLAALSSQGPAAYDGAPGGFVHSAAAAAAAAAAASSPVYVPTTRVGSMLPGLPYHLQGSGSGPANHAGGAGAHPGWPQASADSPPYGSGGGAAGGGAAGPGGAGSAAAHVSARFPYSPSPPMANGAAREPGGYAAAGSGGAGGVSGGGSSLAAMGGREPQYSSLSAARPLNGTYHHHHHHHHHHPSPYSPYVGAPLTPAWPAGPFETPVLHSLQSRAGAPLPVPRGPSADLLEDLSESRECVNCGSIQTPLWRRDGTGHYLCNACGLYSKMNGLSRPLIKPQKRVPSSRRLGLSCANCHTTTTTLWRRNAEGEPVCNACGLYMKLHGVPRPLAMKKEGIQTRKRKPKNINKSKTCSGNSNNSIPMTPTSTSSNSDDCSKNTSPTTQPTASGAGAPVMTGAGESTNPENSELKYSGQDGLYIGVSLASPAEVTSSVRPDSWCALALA

How the values were obtained:
Experiment in all cases: pull-down; HaloTag Mammalian Pull-Down System (Promega) from HEK293T cells co-transfected with HaloTag-fused TET1, TET2 or TET3 and pCDNA3.2-GATA6, collected 2 days after transfection; immunoblot with anti-GATA6 antibody
HaloTag-fused TET2 = HaloTag-fused TET2 (UniProt Q6N021)
HaloTag-fused TET3 = HaloTag-fused TET3 (UniProt O43151)
HaloTag-fused TET1 = HaloTag-fused TET1 (UniProt Q8NFU7)

binding (HaloTag-fused TET2): binds
binding (HaloTag-fused TET3): binds
binding (HaloTag-fused TET1): binds
Substance: GATA6 (from UniProt Q92908 1-595)
